Test results: article PMC2953525, “Subtle Alterations in PCNA-Partner Interactions Severely Impair DNA Replication and Repair” (PLoS Biology, 2010)
Where a chain is given by its changes, count along the chain named. No constants are given. Whether binding was seen depends on the method and setting. Some results given as binding are weak or reduced against the parent protein; the word gives no strength. For some of these results: Where a sequence is shown, tags or fusion partners need not be part of it. Values belong to the binder of their own block, whether it stands above or below them.

Experiments:
[1] = biological target: WT PCNA of the POL30 strain (yeast) (UniProt P15873); assay: ELISA; PCNA captured from crude yeast extract (3 mg/ml) on plates coated with anti-PCNA antibody; bound GFP-tagged partner detected by anti-GFP, normalised to the anti-His signal of PCNA
pol30-Ung1E3 = biological target: T1, pol30-Ung1E3 (yeast, UniProt P15873 1-258, IDCL DIDADFLKIEEL to DFDYDELKIEEL); assay: two-hybrid; pAD-GAL4-PCNA WT or mutant (called bait) and pBD-GAL4-partner (called prey) in strain YRG2; 10-fold serial dilutions spotted on SC-Leu-Trp-His plates, 30°C, 3 d; growth similar to WT PCNA is denoted 1
T1 construct: PCNA (POL30), yeast; source: yeast two-hybrid fusion (pAD-GAL4, strain YRG2)
T1 sequence: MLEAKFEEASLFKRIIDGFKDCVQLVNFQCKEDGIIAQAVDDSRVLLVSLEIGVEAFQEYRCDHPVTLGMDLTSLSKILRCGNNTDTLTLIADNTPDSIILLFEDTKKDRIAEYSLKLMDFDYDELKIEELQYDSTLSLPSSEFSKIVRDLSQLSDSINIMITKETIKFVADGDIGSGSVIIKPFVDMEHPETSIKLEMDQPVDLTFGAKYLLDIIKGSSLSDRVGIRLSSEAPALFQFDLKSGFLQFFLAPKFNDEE

pol30-Pol32E5 = biological target: T2, pol30-Pol32E5 (yeast, UniProt P15873 1-258, IDCL DIDADFLKIEEL to DADNDFLKISEL); assay: as above
T2 construct: PCNA (POL30), yeast; source: yeast two-hybrid fusion (pAD-GAL4, strain YRG2)
T2 sequence: T1 sequence with F121A, Y123N, E125F, E129S

[2] = biological target: proliferating cell nuclear antigen (PCNA) (yeast) (UniProt P15873); assay: as above

binding [1]: binds
B1: GFP-tagged Rad27 (natural protein, yeast, UniProt P26793 1-382, looked up)
chain: MGIKGLNAIISEHVPSAIRKSDIKSFFGRKVAIDASMSLYQFLIAVRQQDGGQLTNEAGETTSHLMGMFYRTLRMIDNGIKPCYVFDGKPPDLKSHELTKRSSRRVETEKKLAEATTELEKMKQERRLVKVSKEHNEEAQKLLGLMGIPYIIAPTEAEAQCAELAKKGKVYAAASEDMDTLCYRTPFLLRHLTFSEAKKEPIHEIDTELVLRGLDLTIEQFVDLCIMLGCDYCESIRGVGPVTALKLIKTHGSIEKIVEFIESGESNNTKWKIPEDWPYKQARMLFLDPEVIDGNEINLKWSPPKEKELIEYLCDDKKFSEERVKSGISRLKKGLKSGIQGRLDGFFQVVPKTKEQLAAAAKRAQENKKLNKNKNKVTKGRR
notes: Rad27, yeast, tagged at its natural locus; source: yeast, GFP-tagged at the natural locus, in crude cell extract; not shown: GFP, C-terminal, kept

binding (pol30-Ung1E3): binds
binding (pol30-Pol32E5): binds
binding [2]: binds
B2: Rad27 (natural protein, yeast, UniProt P26793 1-382, looked up)
chain: B1 chain
notes: Rad27 (endonuclease), yeast; also called pBD-Rad27; source: yeast two-hybrid fusion (pBD-GAL4, strain YRG2)
